# PubChem BioAssay AID504791 – Drosophila RNAi Screening Center, 2011
# Screen: 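Genes whose knock-down strengthens or weakens small-RNA reporter silencing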 (primary screen)
# System: Drosophila S2-derived reporter cells
# Reagents: long dsRNA against Drosophila genes, about 150-250 ng dsRNA per well (siRNA assay); about 80-120 ng (miRNA assay)
# Duration: about 5 days (siRNA assay); about 4 days (miRNA assay)
# Conditions: copper sulfate induction of reporters: 25 µM (siRNA assay); 200 mM stated (miRNA assay), 1-2 days before reading
# Read-out: 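Per-well ratio of Renilla over firefly light, expressed relative to that plate's average ratio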
# Hit rule: 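First-pass picks had plate-scaled ratios over 1.5 for the siRNA assay, over 1.6 for the miRNA assay, or under 0.6; two distinct dsRNAs had to score alike on retest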
# The screen tested about 23,000 reagents; shown is an unselected part of those that have a named target and a result. In the full data, 199 (0.86%) are marked active. 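Plate-scaled ratios behind the calls are not deposited; printed light signals are raw; many rows marked increased or decreased are still called inactive.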 The numbers tell different reagents against one gene apart. Reagent sequences are not shown. The record does not give: the direction of the score.
Gene,reagent no.,stable siRNA reporter change,miRNA reporter change,"stable assay Renilla, run 1 (luminescence)","stable assay firefly, run 1 (luminescence)",Outcome
VhaM9.7-b,1,,,7319,4.04e5,inactive
eIF2A,1,,,9093,2.91e5,inactive
chif,1,reporter ratio raised past the hit cutoff,,1.13e5,1.17e6,inactive
Gcn5,1,,,8953,5.33e5,inactive
Odc1,1,,,7959,3.54e5,inactive
UQCR-C1,1,reporter ratio lowered past the hit cutoff,,6479,5.72e5,inactive
Ggamma30A,1,,,7720,4.31e5,inactive
Ggamma30A,2,,,7634,4.18e5,inactive
fit,1,,,9209,5.16e5,inactive
CG15539,1,,,6332,4.10e5,inactive
Pdf,1,,,3964,3.98e5,inactive
Ip259,1,,,10622,1.08e6,inactive
Rad51D,1,,,6786,3.69e5,inactive
Brca2,1,,,6415,3.51e5,inactive
Brca2,2,,,5439,3.48e5,inactive
X11L,1,,,5651,4.61e5,inactive
X11L,2,,,5407,5.30e5,inactive
Muc30E,1,,,4859,3.82e5,inactive
Arp6,1,,,7051,3.65e5,inactive
SmydA-7,1,,,9001,3.18e5,inactive
mira,1,,,7026,2.82e5,inactive
CG31244,1,,,8554,5.15e5,inactive
CheB98a,1,,,6806,4.00e5,inactive
CG14960,1,,,4776,3.59e5,inactive
Rpt3R,1,,reporter ratio raised past the hit cutoff,6975,3.32e5,inactive
Sas10,1,,,5203,4.43e5,inactive
CG32081,1,,,7918,4.81e5,inactive
hppy,1,,,4499,3.29e5,inactive
hppy,2,,,5972,3.43e5,inactive
hppy,3,,,5936,3.51e5,inactive
CG8461,1,,,8864,6.62e5,inactive
side-VII,1,,,8231,3.74e5,inactive
STUB1,1,,,7802,5.58e5,inactive
veli,1,,,5230,3.31e5,inactive
CG5697,1,,,7346,3.50e5,inactive
CG42360,1,,reporter ratio raised past the hit cutoff,7942,3.26e5,inactive
Svil,1,,,5388,4.32e5,inactive
Svil,2,,,8898,2.56e5,inactive
Svil,3,,,6686,4.01e5,inactive
Svil,4,,,5118,2.20e5,inactive
Svil,5,,,6984,4.25e5,inactive
tfc,1,,,6547,4.97e5,inactive
tfc,2,,,5016,3.08e5,inactive
tfc,3,,,10690,3.31e5,inactive
tfc,4,,,8181,5.17e5,inactive
RPA2,1,,,8505,7.26e5,inactive
RhoGAP16F,1,,,7722,4.08e5,inactive
Grx1t,1,,,6439,3.80e5,inactive
CG31676,1,,,7327,4.65e5,inactive
CG10347,1,,,5819,3.73e5,inactive
TrpA1,1,,,5739,3.42e5,inactive
IscU,1,,,7074,5.03e5,inactive
CG13309,1,,,6444,3.36e5,inactive
CG4669,1,,,7462,4.50e5,inactive
Mgat4b,1,,,8242,3.46e5,inactive
CG5342,1,,,5379,3.23e5,inactive
CG14989,1,,,9001,5.69e5,inactive
a5,1,,,8110,4.85e5,inactive
RpL37-2,1,,,6599,3.56e5,inactive
CG15362,1,,,7426,5.29e5,inactive
TBPH,1,,,98629,8.80e5,inactive
CG14624,1,,,5319,3.79e5,inactive
CG16743,1,,,6039,2.99e5,inactive
scny,1,,reporter ratio lowered past the hit cutoff,7707,4.30e5,active
scny,2,,,6358,3.37e5,inactive
scny,3,,,5808,3.13e5,inactive
loaf,1,,,4032,3.39e5,inactive
unc-4,1,,,5514,3.98e5,inactive
unc-4,2,,,9549,6.99e5,inactive
NC2alpha,1,,reporter ratio lowered past the hit cutoff,10573,4.61e5,inactive
CG11131,1,,,7406,5.18e5,inactive
CG11131,2,,,9537,4.37e5,inactive
CG13016,1,,,6398,3.99e5,inactive
ND-MLRQ,1,,,4668,3.81e5,inactive
Opa1,1,,,7198,4.06e5,inactive
pho,1,,,6758,3.58e5,inactive
Epp,1,,,9361,4.57e5,inactive
Spc105R,1,,reporter ratio raised past the hit cutoff,7484,3.76e5,inactive
CG42514,1,reporter ratio lowered past the hit cutoff,,8124,5.64e5,inactive
CG17097,1,,,6667,4.09e5,inactive
CG2875,1,,,7537,4.51e5,inactive
CG12177,1,,,4075,4.68e5,inactive
CG12177,2,,,8683,4.77e5,inactive

Only “stable assay Renilla, run 1 (luminescence)” (9 entries from above):
Brca2 #1	6415
Brca2 #2	5439
X11L #1	5651
X11L #2	5407
Muc30E	4859
Arp6	7051
SmydA-7	9001
mira	7026
CG31244	8554
